PubChem BioAssay AID1671195 | Yale University | 2021
Purpose: 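Regulators of LDL receptor activity judged by labelled LDL uptake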 (primary screen). System: human Huh7 hepatoma cells. Knock-down reagent: siRNA pool against human genes, 18 nM. Time to read-out: about 2 to 2.5 days of knockdown, then 8 h LDL uptake. Treatment: DiI-labelled LDL at 30 µg/ml for 8 h, in lipoprotein-deficient serum medium. Measured: 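Per-cell DiI-LDL intensity by automated imaging; well means scaled to the plate median and given as a robust z-score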. Reading the numbers: robust z-score: higher = more LDL uptake after knockdown. Call rule: 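a gene counts as active if at least two replicate z-scores exceed ±2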.
The whole screen tested about 22,000 reagents; below is a part drawn at random. About 1,510 of all reagents (6.9%) count as active. 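Active includes knockdowns raising or lowering LDL uptake; positive z-scores mean more uptake, negative mean less.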 Entries without a mark were called inactive.

RPS2P11 | robust z-score, replicate 1: 0.467; robust z-score, replicate 2: 0.501; robust z-score, replicate 3: -0.119
MAT1A | robust z-score, replicate 1: 0.915; robust z-score, replicate 2: -0.521; robust z-score, replicate 3: -0.581
ATP1A4 | robust z-score, replicate 1: -0.979; robust z-score, replicate 2: -0.108; robust z-score, replicate 3: -1.32
TMEM82 | robust z-score, replicate 1: -0.226; robust z-score, replicate 2: -0.258; robust z-score, replicate 3: -0.37
CRAT | robust z-score, replicate 1: 0.478; robust z-score, replicate 2: 0.616; robust z-score, replicate 3: 0.331
KAT7 | robust z-score, replicate 1: 1.89; robust z-score, replicate 2: 0.85; robust z-score, replicate 3: 3.44
LINC01587 | robust z-score, replicate 1: 0.701; robust z-score, replicate 2: 0.176; robust z-score, replicate 3: 0.58
CRNDE | robust z-score, replicate 1: -1.14; robust z-score, replicate 2: -1.12; robust z-score, replicate 3: -1.05
ECEL1 | robust z-score, replicate 1: 2.17; robust z-score, replicate 2: 1.81; robust z-score, replicate 3: 1.57
SIAH1P1 | robust z-score, replicate 1: -1.16; robust z-score, replicate 2: 0.324; robust z-score, replicate 3: 0.00349
MAGEA12 | robust z-score, replicate 1: 1.09; robust z-score, replicate 2: 0.435; robust z-score, replicate 3: 0.244
GTF2H3 | robust z-score, replicate 1: 0.313; robust z-score, replicate 2: -0.0942; robust z-score, replicate 3: 0.151
TTC7B | robust z-score, replicate 1: 0.298; robust z-score, replicate 2: 0.512; robust z-score, replicate 3: 0.433
HDAC9 | robust z-score, replicate 1: 0.291; robust z-score, replicate 2: -0.238; robust z-score, replicate 3: -1.13
LINC01994 | robust z-score, replicate 1: -0.159; robust z-score, replicate 2: -0.264; robust z-score, replicate 3: -0.144
TMED3 | robust z-score, replicate 1: 1.49; robust z-score, replicate 2: -0.0236; robust z-score, replicate 3: 0.139

Entries listed so far whose target name starts with M or m (2):
MAT1A | robust z-score, replicate 1: 0.915; robust z-score, replicate 2: -0.521; robust z-score, replicate 3: -0.581
MAGEA12 | robust z-score, replicate 1: 1.09; robust z-score, replicate 2: 0.435; robust z-score, replicate 3: 0.244
